One assay deals with Bcl-10-CARD/BD (yeast) (UniProt P04386+O95999). The assay is described as follows: mammalian two-hybrid, 293T cells.
In assay [1] the target is T1, endogenous Bcl-10 (human) (UniProt O95999).
T1 sequence (looked up): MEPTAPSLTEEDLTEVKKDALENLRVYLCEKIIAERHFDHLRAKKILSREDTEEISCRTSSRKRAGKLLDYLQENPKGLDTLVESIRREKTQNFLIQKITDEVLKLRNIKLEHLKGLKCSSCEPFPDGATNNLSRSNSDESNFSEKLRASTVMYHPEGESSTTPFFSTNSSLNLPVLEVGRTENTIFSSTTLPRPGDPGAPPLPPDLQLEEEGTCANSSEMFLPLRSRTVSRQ
The assay is described as follows: co-immunoprecipitation (anti-Bcl-10 IP, anti-FLAG blot).

Sequences of proteins named here, by UniProt entry; tags and fusion partners are left off. A change or cut given only in a name is not applied to a line headed by its entry.
UniProt P04386: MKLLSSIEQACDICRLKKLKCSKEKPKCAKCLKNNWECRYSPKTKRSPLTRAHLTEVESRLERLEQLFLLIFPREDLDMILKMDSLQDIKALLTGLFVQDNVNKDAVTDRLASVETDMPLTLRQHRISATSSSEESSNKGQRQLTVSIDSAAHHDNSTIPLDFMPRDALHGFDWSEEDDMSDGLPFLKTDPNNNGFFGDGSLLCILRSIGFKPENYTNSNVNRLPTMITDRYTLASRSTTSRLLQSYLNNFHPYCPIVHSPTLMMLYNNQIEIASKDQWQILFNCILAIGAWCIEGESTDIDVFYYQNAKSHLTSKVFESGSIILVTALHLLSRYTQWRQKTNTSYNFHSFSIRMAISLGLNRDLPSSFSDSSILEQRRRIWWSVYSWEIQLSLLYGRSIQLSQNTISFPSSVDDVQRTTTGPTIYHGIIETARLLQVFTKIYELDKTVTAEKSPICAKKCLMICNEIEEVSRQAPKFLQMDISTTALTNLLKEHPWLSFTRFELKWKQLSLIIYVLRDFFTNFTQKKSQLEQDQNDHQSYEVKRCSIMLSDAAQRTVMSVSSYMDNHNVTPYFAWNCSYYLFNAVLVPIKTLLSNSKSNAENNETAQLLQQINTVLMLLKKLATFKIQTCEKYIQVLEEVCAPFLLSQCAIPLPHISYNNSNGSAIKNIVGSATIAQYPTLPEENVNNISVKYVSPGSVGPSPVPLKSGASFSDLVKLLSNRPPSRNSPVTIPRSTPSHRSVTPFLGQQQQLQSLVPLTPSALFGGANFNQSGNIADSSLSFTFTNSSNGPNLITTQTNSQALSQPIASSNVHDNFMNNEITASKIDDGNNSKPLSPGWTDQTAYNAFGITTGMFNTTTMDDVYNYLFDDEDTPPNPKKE
UniProt Q9H257: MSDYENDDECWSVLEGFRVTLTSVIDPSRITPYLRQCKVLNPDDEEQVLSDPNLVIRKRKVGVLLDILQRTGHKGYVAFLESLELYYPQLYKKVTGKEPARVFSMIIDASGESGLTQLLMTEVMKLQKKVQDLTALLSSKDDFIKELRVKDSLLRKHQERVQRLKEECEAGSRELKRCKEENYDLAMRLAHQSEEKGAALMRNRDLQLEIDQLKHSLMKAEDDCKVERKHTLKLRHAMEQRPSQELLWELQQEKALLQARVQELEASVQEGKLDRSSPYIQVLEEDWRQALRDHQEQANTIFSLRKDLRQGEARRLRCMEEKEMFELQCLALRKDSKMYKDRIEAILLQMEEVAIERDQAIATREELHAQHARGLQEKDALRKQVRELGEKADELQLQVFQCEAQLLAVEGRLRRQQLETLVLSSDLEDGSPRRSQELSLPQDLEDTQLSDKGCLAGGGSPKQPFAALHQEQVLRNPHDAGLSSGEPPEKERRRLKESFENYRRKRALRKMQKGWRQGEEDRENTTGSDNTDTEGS

Assay [2] addresses T1, endogenous Bcl-10 (human). In words: co-immunoprecipitation from transfected 293T cells (anti-Bcl-10 IP, anti-FLAG blot).
The target in assay [3] is T2, Myc-tagged CARD-9 (human) (UniProt Q9H257).
T2 sequence: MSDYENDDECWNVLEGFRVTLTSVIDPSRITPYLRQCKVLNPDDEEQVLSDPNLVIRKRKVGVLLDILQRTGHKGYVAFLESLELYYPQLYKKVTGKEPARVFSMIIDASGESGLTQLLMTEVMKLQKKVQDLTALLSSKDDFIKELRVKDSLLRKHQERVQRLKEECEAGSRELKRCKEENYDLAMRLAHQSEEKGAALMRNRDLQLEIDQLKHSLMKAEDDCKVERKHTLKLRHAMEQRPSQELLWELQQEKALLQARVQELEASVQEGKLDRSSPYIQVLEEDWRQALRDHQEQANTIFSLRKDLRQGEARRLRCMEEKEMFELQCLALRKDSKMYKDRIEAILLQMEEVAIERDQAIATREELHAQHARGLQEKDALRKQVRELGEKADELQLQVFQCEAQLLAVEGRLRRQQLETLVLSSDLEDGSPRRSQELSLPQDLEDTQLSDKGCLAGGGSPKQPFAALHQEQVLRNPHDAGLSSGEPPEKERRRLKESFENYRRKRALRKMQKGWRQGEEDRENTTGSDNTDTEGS
In words: co-immunoprecipitation (anti-Flag IP, Myc blot).

The target of assay [4] is T2, Myc-tagged CARD-9 (human). In words: co-immunoprecipitation from transfected 293T cells (anti-Flag IP, anti-Myc blot).
Assay [5] addresses T1, endogenous Bcl-10 (human). In words: co-immunoprecipitation of endogenous proteins from Thp1 cells.
In assay [6] the target is T1, endogenous Bcl-10 (human). The assay is described as follows: co-immunoprecipitation from Thp1 cell extracts.
The target in assay [7] is T3, GST-Bcl-10 (UniProt O95999).
T3 sequence (looked up): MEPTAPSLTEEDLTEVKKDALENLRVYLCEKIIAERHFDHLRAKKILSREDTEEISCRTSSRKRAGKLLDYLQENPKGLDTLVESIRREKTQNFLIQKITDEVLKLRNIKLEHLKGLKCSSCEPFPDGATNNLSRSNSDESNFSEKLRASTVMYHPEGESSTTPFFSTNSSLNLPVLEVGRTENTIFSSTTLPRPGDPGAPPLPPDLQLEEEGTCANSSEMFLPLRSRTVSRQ
In words: GST pull-down, autoradiography.

The target of assay [8] is T3, GST-Bcl-10. In words: GST pull-down of 35S-methionine-labeled CARD-9 on glutathione-sepharose, autoradiography.
Assay [9] concerns the target T1, endogenous Bcl-10 (human). In words: co-immunoprecipitation (Bcl-10 IP, anti-Myc blot).
Assay [10] has as its target T1, endogenous Bcl-10 (human). In words: co-immunoprecipitation from transfected 293T cells (Bcl-10 IP, anti-Myc blot).

Consider 6 molecules from patent US20030113787A1.

Results are given in words; binding and its absence hold for the method and conditions named. For some assays here: Binding seen in cells or lysates may run through a third protein. Some binding calls cover weakened binding; strength is not graded here. For some assays here: Where a sequence is shown, tags or fusion partners need not be part of it.

B1: CARD-11-CARD fused to the NF-kB activation domain (pCMV-CARD-11/AD) (protein, mouse)
chain: SPMLLPSGQISNQALALAPSSAPVLAQTMVPSSAMVPLAQPPAPAPVLTPGPPQSLSAPVPKSTQAGEGTLSEALLHLQFDADEDLGALLGNSTDPGVFTDLASVDNSEFQQLLNQGVSMSHSTAEPMLMEYPEAITRLVTGSQRPPDPAPTPLGTSGLPNGLSGDEDFSSIADMDFSALLSQISSEEDALWENVECNRHMLSRYINPAKLTPYLRQCKVIDEQDEDEVLNAPMLPSKINRAGRLLDILHTKGQRGYVVFLESLEFYYPELYKLVTGKE
B1: the binding entry in the assay with Bcl-10-CARD/BD (yeast) is “binds”.

B2: FLAG-tagged CARD-10 (protein, not shown: small tags and cut ends)
chain: MPGRAEAGEAEEEAGAGSGSEAEEDALWERIEGVRHRLARALNPAKLTPYLRQCRVIDEQDEEEVLSTYRFPCRVNRTGRLMDILRCRGKRGYEAFLEALEFYYPEHFTLLTGQEPAQRCSMILDEEGPEGLTQFLMTEVRRLREARKSQLQREQQLQARGRVLEEERAGLEQRLRDQQQAQERCQRLREDWEAGSLELLRLKDENYMIAMRLAQLSEEKNSAVLRSRDLQLAVDQLKLKVSRLEEECALLRRARGPPPGAEEKEKEKEKEKEPDNVDLVSELRAENQQLTASLRELQEGLQQEASRPGAPGSERILLDILEHDWREAQDSRQELCQKLHAVQGELQWAEELRDQYLQEMEDLRLKHRTLQKDCDLYKHRMATVLAQLEEIEKERDQAIQSRDRIQLQYSQSLIEKDQYRKQVRGLEAERDELLTTLTSLEGTKALLEVQLQRAQGGTCLKACASSHSLCSNLSSTWSLSEFPSPLGGPEATGEAAVMGGPEPHNSEEATDSEKEINRLSILPFPPSAGSILRRQREEDPAPPKRSFSSMSDITGSVTLKPWSPGLSSSSSSDSVWPLGKPEGLLARGCGLDFLNRSLAIRVSGRSPPGGPEPQDKGPDGLSFYGDRWSGAVVRRVLSGPGSARMEPREQRVEAAGLEGACLEAEAQQRTLLWNQGSTLPSLMDSKACQSFHEALEAWAKGPGAEPFYIRANLTLPERADPHALCVKAQEILRLVDSAYKRRQEWFCTRVDPLTLRDLDRGTVPNYQRAQQLLEVQEKCLPSSRHRGPRSNLKKRALDQLRLVRPKPVGAPAGDSPDQLLLEPCAEPERSLRPYSLVRPLLVSALRPVVLLPECLAPRLIRNLLDLPSSRLDFQVCPAESLSGEELCPSSAPGAPKAQPATPGLGSRIRAIQESVGKKHCLLELGARGVRERVQNEIYPIVIHVEVTEKNVREVRGLLGRPGWRDSELLRQCRGSEQVLWGLPCSWVQVPAHEWGHAEELAKVVRGRILQEQARLVWVECGSSRGCPSSSEA
As to B2, the binding entry in assay [1] and in [2] was “binds” each time.

B3: Flag-tagged CARD-9 (protein, not shown: small tags and cut ends)
chain: MSDYENDDECWNVLEGFRVTLTSVIDPSRITPYLRQCKVLNPDDEEQVLSDPNLVIRKRKVGVLLDILQRTGHKGYVAFLESLELYYPQLYKKVTGKEPARVFSMIIDASGESGLTQLLMTEVMKLQKKVQDLTALLSSKDDFIKELRVKDSLLRKHQERVQRLKEECEAGSRELKRCKEENYDLAMRLAHQSEEKGAALMRNRDLQLEIDQLKHSLMKAEDDCKVERKHTLKLRHAMEQRPSQELLWELQQEKALLQARVQELEASVQEGKLDRSSPYIQVLEEDWRQALRDHQEQANTIFSLRKDLRQGEARRLRCMEEKEMFELQCLALRKDSKMYKDRIEAILLQMEEVAIERDQAIATREELHAQHARGLQEKDALRKQVRELGEKADELQLQVFQCEAQLLAVEGRLRRQQLETLVLSSDLEDGSPRRSQELSLPQDLEDTQLSDKGCLAGGGSPKQPFAALHQEQVLRNPHDAGLSSGEPPEKERRRLKESFENYRRKRALRKMQKGWRQGEEDRENTTGSDNTDTEGS
Regarding B3, the binding result in assay [3] and in assay [4] was “binds” throughout.

B4: endogenous CARD-9 (protein)
chain: MSDYENDDECWNVLEGFRVTLTSVIDPSRITPYLRQCKVLNPDDEEQVLSDPNLVIRKRKVGVLLDILQRTGHKGYVAFLESLELYYPQLYKKVTGKEPARVFSMIIDASGESGLTQLLMTEVMKLQKKVQDLTALLSSKDDFIKELRVKDSLLRKHQERVQRLKEECEAGSRELKRCKEENYDLAMRLAHQSEEKGAALMRNRDLQLEIDQLKHSLMKAEDDCKVERKHTLKLRHAMEQRPSQELLWELQQEKALLQARVQELEASVQEGKLDRSSPYIQVLEEDWRQALRDHQEQANTIFSLRKDLRQGEARRLRCMEEKEMFELQCLALRKDSKMYKDRIEAILLQMEEVAIERDQAIATREELHAQHARGLQEKDALRKQVRELGEKADELQLQVFQCEAQLLAVEGRLRRQQLETLVLSSDLEDGSPRRSQELSLPQDLEDTQLSDKGCLAGGGSPKQPFAALHQEQVLRNPHDAGLSSGEPPEKERRRLKESFENYRRKRALRKMQKGWRQGEEDRENTTGSDNTDTEGS
Take B4: the binding result in assay [5] and in assay [6] was “binds” in each case.

B5: 35S-labeled CARD-9 (protein)
chain: MSDYENDDECWNVLEGFRVTLTSVIDPSRITPYLRQCKVLNPDDEEQVLSDPNLVIRKRKVGVLLDILQRTGHKGYVAFLESLELYYPQLYKKVTGKEPARVFSMIIDASGESGLTQLLMTEVMKLQKKVQDLTALLSSKDDFIKELRVKDSLLRKHQERVQRLKEECEAGSRELKRCKEENYDLAMRLAHQSEEKGAALMRNRDLQLEIDQLKHSLMKAEDDCKVERKHTLKLRHAMEQRPSQELLWELQQEKALLQARVQELEASVQEGKLDRSSPYIQVLEEDWRQALRDHQEQANTIFSLRKDLRQGEARRLRCMEEKEMFELQCLALRKDSKMYKDRIEAILLQMEEVAIERDQAIATREELHAQHARGLQEKDALRKQVRELGEKADELQLQVFQCEAQLLAVEGRLRRQQLETLVLSSDLEDGSPRRSQELSLPQDLEDTQLSDKGCLAGGGSPKQPFAALHQEQVLRNPHDAGLSSGEPPEKERRRLKESFENYRRKRALRKMQKGWRQGEEDRENTTGSDNTDTEGS
modifications: 35S-methionine labeled
As for B5, the binding result with GST-Bcl-10 [7] and with GST-Bcl-10 [8] was “binds” each time.

B6: Myc-tagged CARD-9 (protein, not shown: small tags and cut ends)
chain: MSDYENDDECWNVLEGFRVTLTSVIDPSRITPYLRQCKVLNPDDEEQVLSDPNLVIRKRKVGVLLDILQRTGHKGYVAFLESLELYYPQLYKKVTGKEPARVFSMIIDASGESGLTQLLMTEVMKLQKKVQDLTALLSSKDDFIKELRVKDSLLRKHQERVQRLKEECEAGSRELKRCKEENYDLAMRLAHQSEEKGAALMRNRDLQLEIDQLKHSLMKAEDDCKVERKHTLKLRHAMEQRPSQELLWELQQEKALLQARVQELEASVQEGKLDRSSPYIQVLEEDWRQALRDHQEQANTIFSLRKDLRQGEARRLRCMEEKEMFELQCLALRKDSKMYKDRIEAILLQMEEVAIERDQAIATREELHAQHARGLQEKDALRKQVRELGEKADELQLQVFQCEAQLLAVEGRLRRQQLETLVLSSDLEDGSPRRSQELSLPQDLEDTQLSDKGCLAGGGSPKQPFAALHQEQVLRNPHDAGLSSGEPPEKERRRLKESFENYRRKRALRKMQKGWRQGEEDRENTTGSDNTDTEGS
Consider B6, for which the binding result in assay [9] and in assay [10] was “binds” each time.
